# Data as given in PubChem BioAssay AID2417 (National Center for Advancing Translational Sciences (NCATS), 2010).
# The whole screen tested about 140,000 compounds, of which about 4,300 (3.1%) were called active. The shares of active, inactive and inconclusive entries below differ from those in the screen.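 Rule for the calls: active = readout at or below -70, meaning at least 70% loss of cells showing the perinucleolar compartment, a nuclear body marking cancer cells; inconclusive = readout between -30 and a set limit; inactive = the rest.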
# Experiment: High Content Assay for Compounds that inhibit the Assembly of the Perinucleolar Compartment;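 note: plate controls were DMSO wells for no effect and camptothecin positive control wells for full effect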
# Settings: PC3M PTB-GFP, PNC prevalence imaging, 16 h; at 10 µM; hits give low values
# Procedure, shortened: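 PC3M cells stably expressing PTB-GFP, 750–1000 cells/well, treated 16 h at 37 °C with compound (23 nl of library stock), in duplicate. After paraformaldehyde fixation and Hoechst stain, imaged at 20x; PNC prevalence scored by image analysis.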
row,Structure (SMILES),"activity change (PNC), negative = inhibition"
1,COc1ccc(OC)c(C2CC(=O)NC(SC)=C2C#N)c1 (centres undefined),inactive: 16.7%
2,COc1ccc(C2C(C#N)=C(N)Oc3n[nH]c(C)c32)cc1Cn1nc(C)c([N+](=O)[O-])c1C (centres undefined),inconclusive: -40.1%
3,CCOC(=O)c1c(NC(=O)c2ccc(N3C(=O)[C@@H]4[C@H](C3=O)[C@H]3C=C[C@@H]4C3)cc2)sc2c1CC(C)CC2 (some centres undefined),active: -125%
4,O=C(Cn1c(-c2ccccc2)noc1=O)Nc1ccc(N2CCCCCC2)cc1,inactive: 16.1%
5,C=CCOc1c(Br)cc(/C=N\n2nnnc2N)cc1OC,inconclusive: -31.6%
6,CCc1ccc(OC)c(S(=O)(=O)Nc2ccccc2C)c1,inconclusive: -33.6%
7,CCOC(=S)SCc1cn2ccc(C)cc2n1,inconclusive: -39.9%
8,CCOC(=O)CC(NS(=O)(=O)Cc1ccccc1)c1ccc(C)cc1 (centres undefined),inconclusive: -36%
9,CC(C)C(C)NC(=O)COc1ccc(S(=O)(=O)N2CCOCC2)cc1[N+](=O)[O-] (centres undefined),inactive: 21.5%
10,CCn1cc(C(=O)O)c(=O)c2cc(F)c(N3CCNCC3)cc21,inconclusive: -31.6%
11,Cc1ccccc1-c1nc(CN2CCC(C(=O)N3CCN(c4ccccn4)CC3)CC2)c(C)o1,inconclusive: -52.7%
12,Cc1ccc2c(c1)c(CC(=O)Nc1ccc(F)cc1)c(C(=O)O)n2C,inactive: 22.6%
13,C=CC(C)Sc1nc2c(c(=O)n(C)c(=O)n2C)n1Cc1ccccc1Cl (centres undefined),inconclusive: -58.2%
14,O=C(Nc1nccs1)c1ccc(CSc2nnnn2-c2ccccc2)cc1,inconclusive: -36.3%
15,Cc1ccc(N2CCN(C(=O)N3CCCC3)CC2)cc1Cl,inconclusive: -41%
16,C=C(C)C1CC=C(C)/C(=N/NC(=O)c2ccc(NC(=O)c3cccc(C)c3)cc2)C1 (centres undefined),inactive: 27.4%
17,c1ccc(C2CCC3(CC2)Oc2ccccc2C2CC(c4cccnc4)=NN23)cc1 (centres undefined),inconclusive: -63.6%
18,COc1cc2c(cc1OC)CN(C(=O)COc1ccc(C)c(C)c1)CC2,inconclusive: -60.8%
19,CS(=O)(=O)c1cnc(-c2ccccc2)nc1Oc1ccc(Cl)cc1,inconclusive: -44.5%
20,CCSc1nnc(NC(=O)CCNS(=O)(=O)c2cc(Br)cnc2N)s1,inconclusive: -75.3%
21,COc1ccc(N2CC(C(=O)NCCc3ccc(OC)c(OC)c3)CC2=O)cc1 (centres undefined),inactive: 23.8%
22,CCCCCN(C(=O)NC(=O)NCCCC)S(C)(=O)=O,inconclusive: -33.6%
23,Cc1nc2ccc(N3C(=O)CCC3=O)cc2[nH]1,inconclusive: -68.7%

# Quoted from the listing:
# Entry of `CCOC(=O)CC(NS(=O)(=O)Cc1ccccc1)c1ccc(C)cc1` (centres undefined) under activity change (PNC), negative = inhibition: inconclusive: -36%
# Entry of `O=C(Nc1nccs1)c1ccc(CSc2nnnn2-c2ccccc2)cc1` under activity change (PNC), negative = inhibition: inconclusive: -36.3%
# Entry of `COc1ccc(C2C(C#N)=C(N)Oc3n[nH]c(C)c32)cc1Cn1nc(C)c([N+](=O)[O-])c1C` (centres undefined) under activity change (PNC), negative = inhibition: inconclusive: -40.1%

# Additional structures.

row,Structure (SMILES),"activity change (PNC), negative = inhibition"
1,N#Cc1c(N)sc2c1CCN(CCc1ccccc1)C2,inactive: 236%
2,N#CC1=C(S)N=C(N)C(c2nc(-c3ccccc3)cs2)C12CCCC2 (centres undefined),inconclusive: -36.9%
3,CN1CCN(S(=O)(=O)c2ccc(Cc3ccc(S(=O)(=O)N4CCN(C)CC4)cc3)cc2)CC1,inconclusive: -57.1%
4,COc1ccc(CC(=O)Nc2cccc(/C(C)=N/NC(=O)c3cccc([N+](=O)[O-])c3)c2)cc1,inactive: 15%
5,COc1cccc(C(=O)Nc2nc(-c3ccc4c(c3)OCO4)cs2)c1,inconclusive: -36.4%
6,C=C(C)C1Cc2nc(N)nc(C)c2C1 (centres undefined),inactive: -7.09%
7,CC(C)c1ccccc1NC(=O)c1ccco1,active: -95.9%
8,CC1CC(N(C(=O)c2ccco2)c2ccccc2)c2ccccc2N1 (centres undefined),inconclusive: -78.2%
9,Cc1cccc(Cc2cnc(NC(=O)c3ccc(C)o3)s2)c1,inconclusive: -55.3%
10,CCOc1ccc(/C=N/NC(=O)c2ccc(Cn3cc([N+](=O)[O-])cn3)o2)cc1,inconclusive: -42.2%
11,O=[N+]([O-])c1nn(-c2ccc3c(c2)OCCO3)n(O)c1=NC1CCCC1,inconclusive: -66.6%
12,CCc1cccc(C)c1NC(=S)NCCc1c(C)[nH]c2ccc(C)cc12,inconclusive: -47%
13,Cc1cccc(NC(=O)NCc2ccc3c(c2)cc(C)n3C)c1,active: -108%
14,Cc1nnc(Cl)c2nn(-c3ccccc3F)c(C)c12,inconclusive: -34.7%
15,O=C(Cc1ccccc1)NCc1ccc2c(c1)OCO2,inactive: 9.69%
16,O=C(CN1C(=O)COc2ccccc21)N(Cc1ccccc1)Cc1ccccn1,inconclusive: -44%
17,COc1cccc(OCc2nc3ncc(Br)cc3[nH]2)c1,inconclusive: -54.1%
18,COc1cc(Cc2ccc(N)c(OC)c2)ccc1N,active: -113%
19,O=C1N=C(N2CCOCC2)S/C1=C1\C(=O)N(Cc2ccccc2)c2ccc(Br)cc21,inactive: 39.5%
20,Cc1noc(C)c1S(=O)(=O)N(CC(=O)N1CCCCCC1)c1ccc(C(C)C)cc1,inconclusive: -49.5%
21,Cc1ccc(C(=O)N2CCN(c3cc4c(cc3[N+](=O)[O-])n(C)c(=O)n4C)CC2)cc1,inconclusive: -52%
22,CCOC(=O)C1CCCN(C(=O)c2ccccc2NC(C)=O)C1 (centres undefined),inconclusive: -41.6%
23,COCCNCCCCOc1ccc(Br)cc1C,inconclusive: -44.8%

row,Structure (SMILES),"activity change (PNC), negative = inhibition"
1,CCOc1ccccc1NC(=O)CSc1nnc(-c2ccccc2Cl)n1Cc1ccco1,inconclusive: -62.7%
2,COC(=O)c1cc(CSc2nnc(NC3CCCCC3)s2)oc1C,inconclusive: -46.1%
3,COc1ccccc1-c1cc(C(=O)N/N=C\c2cn(C)nc2C)c2ccccc2n1,inconclusive: -48.1%
4,O=C(c1ccc(F)cc1)N1CCN=C1c1ccccc1,active: -96.1%
5,C=CCn1c(=O)/c(=C/c2ccc(Cl)cc2)s/c1=C(/C#N)c1nnc2n1CCCCC2,inactive: 13.2%
6,c1ccc(-c2nn3c(C4CCCCC4)nnc3s2)cc1,inactive: -20.2%
7,COC(=O)c1c(NC(=O)c2cccnc2Cl)sc(C(=O)N(C)C)c1C,inconclusive: -37.8%
8,Cc1cccc(Oc2nc3ccccn3c(=O)c2/C=C(\C#N)C(=O)NC2CCS(=O)(=O)C2)c1 (centres undefined),active: -104%
9,O=S(=O)(Nc1ccc(Cc2ccncc2)cc1)c1ccc(Cl)c(Cl)c1,inactive: 1.57%
10,O=C(NCCCN1CCN(Cc2ccccc2)CC1)c1nnc(Cc2c(F)cccc2Cl)o1,inconclusive: -31.7%
11,COCC(C)n1c(SCC(=O)NC(=O)Nc2ccc3c(c2)OCCO3)nc2ccccc2c1=O (centres undefined),inconclusive: -62.2%
12,CCOC(=O)Cn1cnc(-c2ccc([N+](=O)[O-])cc2)c1,inactive: 28.8%
13,CNc1c([N+](=O)[O-])cnn1-c1ccc(C)cc1,inconclusive: -48.8%
14,O=C(CS(=O)(=O)Cc1ccccc1)N1CCc2ccccc2C1,inconclusive: -63.7%
15,Cc1nn(-c2ccccc2)c(C)c1/C=N/NC(=O)c1cc(-c2ccc(Cl)s2)[nH]n1,inconclusive: -75.6%
16,O=C(NCCO)C1(c2ccc(Cl)cc2)CCCC1,inconclusive: -56.9%
17,COc1ccc(C(C)NC(=O)C2CCCO2)cc1OC (centres undefined),inactive: -12.2%
18,COc1ccc(C(=O)NCC(=O)NC2=NCCS2)cc1,inconclusive: -37.4%
19,CCOc1cc2c(cc1C(C)(C)C)NC(=O)CS2,inconclusive: -37.3%
20,Cc1cccc(NC(=O)CSc2nnc(CNC(=O)c3ccc(S(=O)(=O)N(C)C)cc3)n2-c2ccccc2)c1,inactive: -3.26%
21,CCCNCC1C(Oc2ccc(Cl)cc2)C(=O)N1c1ccccc1C (centres undefined),inactive: 47.4%
22,CCCCn1c(N)c(N(CC)C(=O)c2ccc3c(c2)S(=O)(=O)c2ccccc2C3=O)c(=O)[nH]c1=O,inconclusive: -36.4%
23,CC1=Nc2ccccc2/C1=C/c1sc(=O)n(CC(=O)N2CCCC2)c1O,inactive: 24.7%

row,Structure (SMILES),"activity change (PNC), negative = inhibition"
1,CCOc1ccc(CCNC(=O)COC(=O)/C=C/c2ccc(OCC#N)c(OC)c2)cc1OCC,inconclusive: -49.2%
2,O=C(Nc1ccc(Cl)c([N+](=O)[O-])c1)c1ccncc1,inactive: 66.9%
3,CC1CCN(c2c(NCc3ccc(C(=O)NCc4cccnc4)cc3)c(=O)c2=O)CC1,inconclusive: -66.1%
4,CC1(C)Cc2ccccc2-c2nc(NCCO)n(-c3ccccc3)c(=O)c21,inconclusive: -39.3%
5,CC(C)(C)OC(=O)NNC(=O)c1ccc(Cl)cc1,inconclusive: -47.8%
6,CCNc1nc(NCC)nc(N(C)N)n1,inconclusive: -33.9%
7,O=C(CCl)Nc1nc(-c2ccco2)c(-c2ccco2)s1,inactive: -5.7%
8,CN(C)c1ccc(-c2ccncc2)cc1,inactive: -18.4%
9,CCn1c(N2CCN(CC(=O)c3c[nH]c4ccccc34)CC2)nc2c1c(=O)[nH]c(=O)n2C,inactive: 10.1%
10,N#CCCN1CCN(C(=S)c2ccc(-c3cc(Cl)ccc3Cl)o2)CC1,inactive: 36.5%
11,CCOc1ccc(N(CC(=O)NC2CCCC(C)C2C)S(=O)(=O)c2c(C)noc2C)cc1 (centres undefined),inconclusive: -31.1%
12,N#CCCN1CCN(C2=NC(=O)C(=C3CCCCC3)S2)CC1,inactive: 18.9%
13,O=C(NCCOC12CC3CC(CC(C3)C1)C2)c1cccc(Br)c1,inactive: -19.1%
14,COc1cccc(C(=O)N(C)c2nnc(-c3ccncc3)s2)c1,inactive: 10%
15,COc1ccc(C2Nc3ccccc3C(=O)N2Cc2ccco2)cc1CN1C(=O)c2ccccc2C1=O (centres undefined),inactive: -5.46%
16,Cn1cccc1C(=O)OCc1csc(-c2ccccc2)n1,inactive: -4.18%
17,O=C(Nc1ccc(N2CCOCC2)cc1)c1cccc(S(=O)(=O)N2CCCCC2)c1,inactive: 11.1%
18,CC1CCN(Cc2c(O)ccc3c2O/C(=C\c2ccco2)C3=O)CC1,inactive: 36.5%
19,O=C(CSc1nc2ccccc2[nH]1)Nc1ccc(F)c(F)c1,inconclusive: -30.3%
20,CCCCNC(=S)N/N=C/C1=CCC2CC1C2(C)C (centres undefined),inactive: -9.64%

# Among those listed so far, two have a COOH group:
row,Structure (SMILES),"activity change (PNC), negative = inhibition"
10,CCn1cc(C(=O)O)c(=O)c2cc(F)c(N3CCNCC3)cc21,inconclusive: -31.6%
12,Cc1ccc2c(c1)c(CC(=O)Nc1ccc(F)cc1)c(C(=O)O)n2C,inactive: 22.6%
